Experimental data reported in publication PMC5964248.
No constants are given. Whether binding was seen depends on the method and setting. In cells and extracts the contact can be indirect. Some entries that bind do so weakly or less than the wild type.

The chains behind the UniProt entries cited, without tags or fusion partners.
UniProt Q86XT4: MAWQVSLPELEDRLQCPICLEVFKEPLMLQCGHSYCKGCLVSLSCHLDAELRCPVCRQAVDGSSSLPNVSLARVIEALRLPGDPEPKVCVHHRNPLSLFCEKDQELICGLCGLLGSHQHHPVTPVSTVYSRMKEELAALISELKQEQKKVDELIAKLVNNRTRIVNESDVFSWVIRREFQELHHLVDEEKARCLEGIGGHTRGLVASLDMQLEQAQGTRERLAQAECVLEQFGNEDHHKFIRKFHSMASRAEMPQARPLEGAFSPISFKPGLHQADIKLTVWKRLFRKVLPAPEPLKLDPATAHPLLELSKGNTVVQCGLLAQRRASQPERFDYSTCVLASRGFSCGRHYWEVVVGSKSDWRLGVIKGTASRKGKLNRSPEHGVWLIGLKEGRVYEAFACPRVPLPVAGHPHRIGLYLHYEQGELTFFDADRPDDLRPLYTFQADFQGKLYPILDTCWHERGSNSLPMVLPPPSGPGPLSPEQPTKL
UniProt O95863: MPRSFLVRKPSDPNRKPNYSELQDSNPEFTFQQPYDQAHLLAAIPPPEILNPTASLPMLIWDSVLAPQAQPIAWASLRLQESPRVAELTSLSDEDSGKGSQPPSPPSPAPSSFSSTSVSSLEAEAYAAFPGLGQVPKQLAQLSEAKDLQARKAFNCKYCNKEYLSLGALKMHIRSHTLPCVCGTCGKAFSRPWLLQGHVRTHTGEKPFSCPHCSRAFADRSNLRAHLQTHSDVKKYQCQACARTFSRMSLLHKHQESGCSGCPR

Legend:
[1] = target: Tripartite motif-containing 50 (TRIM50), expressed from the TRIM50 plasmid in HCC cells (human) (UniProt Q86XT4); experiment: co-IP; BEL7402 and HepG2 cells transfected with TRIM50 plasmid or mock control; immunoprecipitation from lysates and western blot
[2] = target: TRIM50 in cytoplasmic and nuclear fractions of HepG2 cells (human (endogenous in HepG2)) (UniProt Q86XT4); experiment: co-IP; cytoplasmic and nuclear fractions prepared from HepG2 cells; co-IP in each fraction
[3] = target: TRIM50 protein expressed by the in vitro transcription and translation system (human) (UniProt Q86XT4); experiment: co-IP; TRIM50 and SNAIL separately expressed by in vitro transcription and translation, mixed together, immunoprecipitated by the TRIM50 antibody, western blot by SNAIL antibody

binding [1] | binding [2] | binding [3] | Substance
binds | binds |  | SNAIL protein in HCC cells (from UniProt O95863 1-264)
 |  | binds | SNAIL protein expressed by the in vitro transcription and translation system (from UniProt O95863 1-264)
